Data on one molecule can be found in article PMC12193794.

Amino acid sequences for entries named in this document (tags omitted). Residues count along the entry.
UniProt P07174, residues 30-425: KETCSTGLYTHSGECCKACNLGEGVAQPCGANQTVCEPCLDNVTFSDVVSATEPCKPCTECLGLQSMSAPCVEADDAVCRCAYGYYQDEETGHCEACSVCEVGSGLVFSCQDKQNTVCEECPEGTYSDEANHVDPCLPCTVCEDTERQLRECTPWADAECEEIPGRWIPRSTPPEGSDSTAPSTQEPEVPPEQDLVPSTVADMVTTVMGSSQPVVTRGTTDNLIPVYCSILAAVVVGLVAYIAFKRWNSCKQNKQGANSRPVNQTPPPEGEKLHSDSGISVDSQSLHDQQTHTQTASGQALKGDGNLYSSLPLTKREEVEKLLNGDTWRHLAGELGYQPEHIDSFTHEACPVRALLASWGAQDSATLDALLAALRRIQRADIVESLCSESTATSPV

Assay [1] addresses p75 neurotrophin receptor (p75^NTR) (rat (endogenous in primary bladder URO and SMC of Sprague-Dawley rats)) (UniProt P07174). The assay is described as follows: co-IP; lysate (RIPA) of primary rat urothelial cells (URO); 200-400 ug protein precipitated overnight at 4 °C with anti-p75^ICD rabbit antibody and protein G agarose, blot for TRAF6; cells with or without THX-B (5 ug/mL) preincubation and LPS (100 ng/mL, 5 min).

Assay [2] has the same target. Put plainly: co-IP; lysate (RIPA) of primary rat detrusor smooth muscle cells (SMC); 200-400 ug protein precipitated overnight at 4 °C with anti-p75^ICD rabbit antibody and protein G agarose, blot for TRAF6; cells with or without THX-B (5 ug/mL) preincubation and LPS (100 ng/mL), same incubation conditions as for URO.

Results are given in words; binding and its absence hold for the method and conditions named. Binding seen in cells or lysates may run through a third protein. Some results given as binding are weak or reduced against the parent protein; the word gives no strength.

B1: tumor necrosis factor receptor-associated factor 6 (TRAF6) (protein, UniProt B5DF45 1-530)
chain: MSLLNCENSCASSQSSSDCCAAMANSCSAAMKDDSVSGCVSTGNLSSSFMEEIQGYDVEFDPPLESKYECPICLMALREAVQTPCGHRFCKACITKSIRDAGHKCPVDNEILLENQLFPDNFAKREILSLTVKCPNKGCVQKMELRHLEDHQVHCEFALVICPQCQRFFQKCQINKHIIEDCPRRQVSCVNCAVPMPYEEKEIHDQSCPLANIICEYCGTILIREQMPNHYDLDCPTAPVPCTFSVFGCHEKMQRNHLARHLQENTQLHMRLLAQAVHNVNLSLRPCDASSPSRGCRPEDPNYEETVKQLEGRLVRQDHQIRELTAKMETQSMHVSELKRTIRSLEDKVAEMEAQQCNGIYIWKIGNFGMHLKSQEEERPVVIHSPGFYTGRPGYKLCMRLHLQLPTAQRCANYISLFVHTMQGEYDSHLPWPFQGTIRLTILDQSEAVIRQNHEEVMDAKPELLAFQRPTIPRNPKGFGYVTFMHLEALRQGTFIKDDTLLVRCEVSTRFDMGGLRKEGFQPRSTDAGV
As to B1, the binding entry in assay [1] and in assay [2] was “binds” each time.
